Laboratory results from paper PMC9436821.
Results are given in words; binding and its absence hold for the method and conditions named. In cells and extracts the contact can be indirect. Some results given as binding are weak or reduced against the parent protein; the word gives no strength. Tags and fused reporters may be left off the sequences shown.

Molecular target: T1, STX17, endogenous, P56962
T1 chain: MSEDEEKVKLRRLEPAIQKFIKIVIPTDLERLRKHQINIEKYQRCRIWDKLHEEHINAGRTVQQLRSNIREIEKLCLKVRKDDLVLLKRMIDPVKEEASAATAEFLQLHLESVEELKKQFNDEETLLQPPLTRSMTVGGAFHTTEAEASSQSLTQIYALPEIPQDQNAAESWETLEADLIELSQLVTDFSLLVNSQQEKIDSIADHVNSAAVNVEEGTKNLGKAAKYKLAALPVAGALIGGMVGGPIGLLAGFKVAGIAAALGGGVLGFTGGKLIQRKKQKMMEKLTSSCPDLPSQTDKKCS
Experiment: co-IP; cells transfected with FLAG-ULK1-WT or FLAG-ULK1-2A, treated with CQ; IP of STX17 with FLAG blot (A) and IP of FLAG with STX17 blot (B)
Details: remark: other sources report otherwise

binding: binds
B1: FLAG-ULK1-WT, O75385 1-1050 (protein)
chain: MEPGRGGTETVGKFEFSRKDLIGHGAFAVVFKGRHREKHDLEVAVKCINKKNLAKSQTLLGKEIKILKELKHENIVALYDFQEMANSVYLVMEYCNGGDLADYLHAMRTLSEDTIRLFLQQIAGAMRLLHSKGIIHRDLKPQNILLSNPAGRRANPNSIRVKIADFGFARYLQSNMMAATLCGSPMYMAPEVIMSQHYDGKADLWSIGTIVYQCLTGKAPFQASSPQDLRLFYEKNKTLVPTIPRETSAPLRQLLLALLQRNHKDRMDFDEFFHHPFLDASPSVRKSPPVPVPSYPSSGSGSSSSSSSTSHLASPPSLGEMQQLQKTLASPADTAGFLHSSRDSGGSKDSSCDTDDFVMVPAQFPGDLVAEAPSAKPPPDSLMCSGSSLVASAGLESHGRTPSPSPPCSSSPSPSGRAGPFSSSRCGASVPIPVPTQVQNYQRIERNLQSPTQFQTPRSSAIRRSGSTSPLGFARASPSPPAHAEHGGVLARKMSLGGGRPYTPSPQVGTIPERPGWSGTPSPQGAEMRGGRSPRPGSSAPEHSPRTSGLGCRLHSAPNLSDLHVVRPKLPKPPTDPLGAVFSPPQASPPQPSHGLQSCRNLRGSPKLPDFLQRNPLPPILGSPTKAVPSFDFPKTPSSQNLLALLARQGVVMTPPRNRTLPDLSEVGPFHGQPLGPGLRPGEDPKGPFGRSFSTSRLTDLLLKAAFGTQAPDPGSTESLQEKPMEIAPSAGFGGSLHPGARAGGTSSPSPVVFTVGSPPSGSTPPQGPRTRMFSAGPTGSASSSARHLVPGPCSEAPAPELPAPGHGCSFADPITANLEGAVTFEAPDLPEETLMEQEHTEILRGLRFTLLFVQHVLEIAALKGSASEAAGGPEYQLQESVVADQISLLSREWGFAEQLVLYLKVAELLSSGLQSAIDQIRAGKLCLSSTVKQVVRRLNELYKASVVSCQGLSLRLQRFFLDKQRLLDRIHSITAERLIFSHAVQMVQSAALDEMFQHREGCVPRYHKALLLLEGLQHMLSDQADIENVTKCKLCIERRLSALLTGICA
